These are yes or no findings as the source states them, for the method shown. Binding seen in cells or lysates may run through a third protein. Some results given as binding are weak or reduced against the parent protein; the word gives no strength. For some of these results: Where a sequence is shown, tags or fusion partners need not be part of it.
Key:
[1] = molecular target: N-terminally EGFP-tagged human UFL1 (human) (UniProt O94874); experiment: co-IP; extracts of U2OS cells expressing EGFP-UFL1, C53-EGFP or EGFP alone; precipitated with Ab to GFP or, reciprocally, Ab to γ-tubulin; immunoblot
[2] = molecular target: C-terminally EGFP-tagged human CDK5RAP3 (C53) (human) (UniProt Q96JB5); experiment: as above
[3] = molecular target: N-terminally GST-tagged full-length human CDK5RAP3 (C53) (human) (UniProt Q96JB5); experiment: pull-down; immobilised GST-tagged UFL1, C53 or γ-tubulin, or GST alone, incubated with whole-cell extracts (1% NP-40 in HEPES buffer); immunoblot; only the target purified
[4] = molecular target: N-terminally GST-tagged full-length UFL1 (aa 1-794) (human) (UniProt O94874); experiment: as above
[5] = molecular target: CDK5 regulatory subunit-associated protein 3 (C53), endogenous human (human (endogenous in U2OS and T98G)) (UniProt Q96JB5); experiment: co-IP; extracts from the crude membranous fraction (P2) of U2OS cells; protein A beads with Abs to UFL1 (301-389 or 438-793), C53, γ-tubulin (TU-31) or GCP2; immunoblot
[6] = molecular target: E3 UFM1-protein ligase 1 (UFL1), endogenous human (human (endogenous in U2OS and T98G)) (UniProt O94874); experiment: as above

Protein sequences, listed by entry. Tags and fused reporters are not part of them. Lines headed by an entry give the natural chain unless they say otherwise; changes in a name come on top.
UniProt O94874: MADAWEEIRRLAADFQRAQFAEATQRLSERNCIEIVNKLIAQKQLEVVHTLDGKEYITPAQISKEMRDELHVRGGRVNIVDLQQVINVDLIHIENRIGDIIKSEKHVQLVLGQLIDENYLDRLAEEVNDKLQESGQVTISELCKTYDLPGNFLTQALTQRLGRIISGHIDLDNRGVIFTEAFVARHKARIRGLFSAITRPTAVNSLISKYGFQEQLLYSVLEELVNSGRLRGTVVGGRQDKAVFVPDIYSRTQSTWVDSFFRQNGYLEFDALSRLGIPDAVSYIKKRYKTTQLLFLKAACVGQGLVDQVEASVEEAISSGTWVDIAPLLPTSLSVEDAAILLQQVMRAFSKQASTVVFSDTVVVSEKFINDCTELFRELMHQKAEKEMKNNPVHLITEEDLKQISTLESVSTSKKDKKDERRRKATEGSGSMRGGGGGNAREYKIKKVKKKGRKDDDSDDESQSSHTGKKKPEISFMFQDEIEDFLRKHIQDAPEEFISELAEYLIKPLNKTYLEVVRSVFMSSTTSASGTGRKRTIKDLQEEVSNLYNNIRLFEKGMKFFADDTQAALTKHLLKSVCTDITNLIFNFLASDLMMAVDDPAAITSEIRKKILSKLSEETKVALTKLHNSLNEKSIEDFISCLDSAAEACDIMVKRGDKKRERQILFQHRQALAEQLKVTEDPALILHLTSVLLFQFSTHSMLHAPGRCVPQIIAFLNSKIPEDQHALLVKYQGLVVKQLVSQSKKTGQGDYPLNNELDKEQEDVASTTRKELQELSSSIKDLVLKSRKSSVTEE
UniProt Q9BSJ2: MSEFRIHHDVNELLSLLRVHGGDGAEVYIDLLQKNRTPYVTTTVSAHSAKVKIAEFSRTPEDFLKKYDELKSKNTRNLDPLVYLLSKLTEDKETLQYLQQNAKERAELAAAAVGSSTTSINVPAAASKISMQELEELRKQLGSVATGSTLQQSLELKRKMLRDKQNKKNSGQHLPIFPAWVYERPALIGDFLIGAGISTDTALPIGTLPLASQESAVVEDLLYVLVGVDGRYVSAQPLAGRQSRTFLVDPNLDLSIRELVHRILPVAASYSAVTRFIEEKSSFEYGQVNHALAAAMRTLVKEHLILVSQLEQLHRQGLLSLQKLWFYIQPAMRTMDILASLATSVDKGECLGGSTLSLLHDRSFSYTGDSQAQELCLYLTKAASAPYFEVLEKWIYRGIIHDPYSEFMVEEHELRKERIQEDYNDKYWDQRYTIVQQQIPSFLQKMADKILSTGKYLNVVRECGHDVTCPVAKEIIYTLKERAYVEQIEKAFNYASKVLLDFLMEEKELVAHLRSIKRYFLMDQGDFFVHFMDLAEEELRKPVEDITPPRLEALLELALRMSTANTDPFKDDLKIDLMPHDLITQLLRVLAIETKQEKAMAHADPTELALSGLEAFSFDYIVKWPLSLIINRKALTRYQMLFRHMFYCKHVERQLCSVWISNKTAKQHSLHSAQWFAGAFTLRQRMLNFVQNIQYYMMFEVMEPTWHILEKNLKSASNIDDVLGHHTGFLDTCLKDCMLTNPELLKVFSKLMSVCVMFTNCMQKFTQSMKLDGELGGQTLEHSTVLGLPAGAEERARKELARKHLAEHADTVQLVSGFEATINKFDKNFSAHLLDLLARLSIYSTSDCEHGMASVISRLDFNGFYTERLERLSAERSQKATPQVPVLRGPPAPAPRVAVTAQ
UniProt Q9UGJ1: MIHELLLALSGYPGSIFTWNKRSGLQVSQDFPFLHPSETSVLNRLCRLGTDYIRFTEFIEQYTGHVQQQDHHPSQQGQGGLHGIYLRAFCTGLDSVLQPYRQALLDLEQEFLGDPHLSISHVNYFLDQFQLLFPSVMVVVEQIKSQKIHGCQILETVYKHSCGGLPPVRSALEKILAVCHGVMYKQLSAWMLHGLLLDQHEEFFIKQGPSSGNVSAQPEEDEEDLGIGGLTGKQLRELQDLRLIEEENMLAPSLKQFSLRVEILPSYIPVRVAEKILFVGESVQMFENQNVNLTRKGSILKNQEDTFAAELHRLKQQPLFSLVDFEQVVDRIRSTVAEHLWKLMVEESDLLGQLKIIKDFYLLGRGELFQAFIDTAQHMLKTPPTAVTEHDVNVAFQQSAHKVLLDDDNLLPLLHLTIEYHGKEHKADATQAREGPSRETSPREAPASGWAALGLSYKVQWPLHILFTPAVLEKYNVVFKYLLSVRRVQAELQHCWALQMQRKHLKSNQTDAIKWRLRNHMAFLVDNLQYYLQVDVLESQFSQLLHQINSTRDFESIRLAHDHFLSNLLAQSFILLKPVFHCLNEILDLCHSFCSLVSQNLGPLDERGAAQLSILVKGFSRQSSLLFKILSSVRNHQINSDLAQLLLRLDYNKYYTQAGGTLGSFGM
UniProt Q96RT7: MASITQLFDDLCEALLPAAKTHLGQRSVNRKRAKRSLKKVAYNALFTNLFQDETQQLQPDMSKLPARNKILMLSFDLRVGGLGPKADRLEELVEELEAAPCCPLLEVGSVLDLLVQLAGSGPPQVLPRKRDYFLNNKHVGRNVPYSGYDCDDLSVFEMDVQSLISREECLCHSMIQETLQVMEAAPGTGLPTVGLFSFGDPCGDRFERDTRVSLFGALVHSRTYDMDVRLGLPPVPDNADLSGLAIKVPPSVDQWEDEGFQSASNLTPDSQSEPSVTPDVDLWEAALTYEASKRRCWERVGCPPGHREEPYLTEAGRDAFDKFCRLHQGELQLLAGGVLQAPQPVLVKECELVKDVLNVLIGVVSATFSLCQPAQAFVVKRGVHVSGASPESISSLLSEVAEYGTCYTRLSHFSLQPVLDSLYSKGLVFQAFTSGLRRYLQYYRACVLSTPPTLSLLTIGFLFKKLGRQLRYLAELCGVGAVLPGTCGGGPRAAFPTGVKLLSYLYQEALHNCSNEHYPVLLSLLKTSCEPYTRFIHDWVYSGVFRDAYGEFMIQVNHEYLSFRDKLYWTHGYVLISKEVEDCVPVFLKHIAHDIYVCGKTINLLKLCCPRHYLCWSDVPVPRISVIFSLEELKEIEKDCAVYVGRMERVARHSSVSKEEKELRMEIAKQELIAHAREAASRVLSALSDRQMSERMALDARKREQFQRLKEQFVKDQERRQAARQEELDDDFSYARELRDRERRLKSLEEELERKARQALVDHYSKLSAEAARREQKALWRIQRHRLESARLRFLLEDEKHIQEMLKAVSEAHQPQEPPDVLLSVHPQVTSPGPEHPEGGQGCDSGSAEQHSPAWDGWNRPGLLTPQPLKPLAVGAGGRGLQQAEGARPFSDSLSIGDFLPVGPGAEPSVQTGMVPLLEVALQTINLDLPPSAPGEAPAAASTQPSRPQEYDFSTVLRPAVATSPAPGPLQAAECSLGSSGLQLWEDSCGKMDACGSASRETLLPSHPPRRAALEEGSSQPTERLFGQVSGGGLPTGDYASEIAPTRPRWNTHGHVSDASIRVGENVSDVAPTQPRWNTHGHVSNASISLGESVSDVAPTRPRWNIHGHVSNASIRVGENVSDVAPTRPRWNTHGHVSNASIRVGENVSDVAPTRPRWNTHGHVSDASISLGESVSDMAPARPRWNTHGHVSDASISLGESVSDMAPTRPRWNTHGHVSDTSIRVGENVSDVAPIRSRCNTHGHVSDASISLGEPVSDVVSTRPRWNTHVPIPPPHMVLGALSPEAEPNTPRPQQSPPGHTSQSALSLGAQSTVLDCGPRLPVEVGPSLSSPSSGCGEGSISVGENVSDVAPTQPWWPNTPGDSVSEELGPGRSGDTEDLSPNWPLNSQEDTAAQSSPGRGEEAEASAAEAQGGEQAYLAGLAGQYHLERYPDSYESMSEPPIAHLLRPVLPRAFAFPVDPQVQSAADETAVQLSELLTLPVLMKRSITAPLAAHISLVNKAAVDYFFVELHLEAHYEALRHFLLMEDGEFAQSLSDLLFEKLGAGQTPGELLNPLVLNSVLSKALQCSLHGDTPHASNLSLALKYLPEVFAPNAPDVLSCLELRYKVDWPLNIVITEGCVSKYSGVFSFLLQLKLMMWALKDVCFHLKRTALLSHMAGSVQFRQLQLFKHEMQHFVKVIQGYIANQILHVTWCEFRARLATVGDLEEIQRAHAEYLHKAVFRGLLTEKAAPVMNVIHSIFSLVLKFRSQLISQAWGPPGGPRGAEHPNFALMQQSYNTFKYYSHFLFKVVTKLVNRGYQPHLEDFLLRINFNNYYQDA

Measured: binding

γ-tubulin complex protein 2 (GCP2), endogenous human (from UniProt Q9BSJ2 1-902)
binds: [1] | [2] | [3] | [4]

γ-tubulin complex protein 4 (GCP4), endogenous human (from UniProt Q9UGJ1 1-667)
binds: [1] | [2] | [5] | [6]

γ-tubulin complex protein 6 (GCP6), endogenous human (from UniProt Q96RT7 1-1819)
binds: [1] | [2]

Source: publication PMC8834445
